Primary screen of a compound library

Amino acid sequences for entries named in this document (tags omitted).
UniProt E9BF75, entry or part of it: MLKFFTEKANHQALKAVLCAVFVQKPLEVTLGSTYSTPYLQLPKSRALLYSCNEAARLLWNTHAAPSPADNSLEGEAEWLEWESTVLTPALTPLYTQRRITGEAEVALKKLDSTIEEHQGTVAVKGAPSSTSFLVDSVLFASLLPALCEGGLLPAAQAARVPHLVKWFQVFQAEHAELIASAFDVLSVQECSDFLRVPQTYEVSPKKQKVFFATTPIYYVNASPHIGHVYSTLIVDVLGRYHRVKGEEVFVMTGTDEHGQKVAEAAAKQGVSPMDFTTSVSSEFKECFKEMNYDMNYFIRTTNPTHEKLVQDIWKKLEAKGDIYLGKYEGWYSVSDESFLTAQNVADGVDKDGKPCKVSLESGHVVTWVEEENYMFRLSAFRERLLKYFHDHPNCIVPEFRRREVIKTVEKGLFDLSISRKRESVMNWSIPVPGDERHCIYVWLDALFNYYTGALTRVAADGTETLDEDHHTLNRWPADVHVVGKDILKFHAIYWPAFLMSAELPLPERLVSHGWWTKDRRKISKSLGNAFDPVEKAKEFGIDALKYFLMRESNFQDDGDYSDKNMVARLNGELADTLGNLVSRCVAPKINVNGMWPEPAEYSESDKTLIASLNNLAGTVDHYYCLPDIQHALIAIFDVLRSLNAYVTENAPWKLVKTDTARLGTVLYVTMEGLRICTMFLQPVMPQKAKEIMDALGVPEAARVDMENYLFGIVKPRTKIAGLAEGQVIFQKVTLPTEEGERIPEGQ

From ChEMBL document CHEMBL3988442, “University of Dundee, Small-Polar-MMV Screening Library” (2021).

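Primary screen of methionyl-tRNA synthetase; the read-out is not stated. Target: Methionyl-tRNA synthetase (putative), Leishmania donovani (UniProt E9BF75). The test concentration is not given. Values are per cent inhibition. Size under these conditions: about 68,000 compounds, about 24 of them at 50% or above in at least one test.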

Results are percentages, as filed.
The record does not define 0% and 100%; most values in the screen are far below 50% and negative numbers occur (in some assays of this library far below -100).
Compounds were drawn at random from those tested, without regard to their results.

{"compound": "CS(=O)(=O)N1CC(c2nc(N)ncc2-c2ccc(F)cc2)C1", "Inhibition": 16.49}
{"compound": "COc1ncc(C2CC(=O)NCc3nc4ccccn4c32)cn1", "stereo": "stereo not drawn", "Inhibition": 14.81}
{"compound": "O=C1[C@H]2CN(C3CCOCC3)C[C@H]2CN1Cc1cccnc1", "Inhibition": 4.467}
{"compound": "CSCc1cccc(S(=O)(=O)N2CCC(C)CC2)c1", "Inhibition": 7.054}
{"compound": "O=C1CCC(=O)N1c1nn(Cc2ccc(F)cc2)cc1Cl", "Inhibition": -2.973}
{"compound": "CCC(C)N1Cc2c(C(=O)N3CCCC3)nn(C)c2C1", "stereo": "stereo not drawn", "Inhibition": 17.39}
{"compound": "Cc1ocnc1C(=O)N1CCN(Cc2ccccc2)[C@@H]2CS(=O)(=O)C[C@@H]21", "Inhibition": 11.85}
{"compound": "CCc1nc(NC(=O)Cc2csc(-c3nnc[nH]3)n2)sc1C", "Inhibition": 17.42}
{"compound": "CC(C)Oc1ccc(C(=O)N2CCCCC2Cn2cccn2)cn1", "stereo": "stereo not drawn", "Inhibition": 11.22}
{"compound": "CN(C)C(=O)COC[C@@]12CCC[C@@H]1CNC2", "Inhibition": 13.77}
{"compound": "CC(C)c1nnc2ccc(N3CCCC(C(=O)Nc4nccs4)C3)nn12", "stereo": "stereo not drawn", "Inhibition": 14.24}
{"compound": "COc1ccccc1N1CCC(CNCc2cccc(OC)c2OC)C1", "stereo": "stereo not drawn", "Inhibition": 20.92}
{"compound": "COc1ccc(C)cc1-n1cnnc1C1CCOCC1", "Inhibition": 10.14}
{"compound": "CN(C)c1cc2c(nn1)CCN(C(=O)Cc1ccc3c(c1)CCO3)C2", "Inhibition": 13.69}
{"compound": "Cc1c(S(=O)(=O)N(CCc2ccccc2)Cc2ccn(C)n2)cnn1C", "Inhibition": 20.35}
{"compound": "CN1CCC(c2nc3ccc(-c4ccccc4)cn3n2)CC1", "Inhibition": 13.12}
{"compound": "Cc1ccc(F)cc1S(=O)(=O)N1C[C@@H](C)[C@@](C)(O)C1", "Inhibition": 5.344}
{"compound": "CC(C)c1noc(C(C)N2CCN(Cc3ccco3)CC2)n1", "stereo": "stereo not drawn", "Inhibition": 6.299}
{"compound": "O=C(CN1CCCC(Cn2cncn2)C1)NCCc1cccs1", "stereo": "stereo not drawn", "Inhibition": 11.27}
{"compound": "COc1ccc(F)cc1CN(CC(N)=O)C(C)C", "Inhibition": 5.307}
{"compound": "COCCN(C)C[C@@H]1CN(c2cc(C)nc3ccccc23)C[C@@H]1CO", "Inhibition": 17.96}
{"compound": "COc1c(CNCc2cccnc2N2CCCCC2)c(C)nn1C", "Inhibition": 15.95}
{"compound": "COc1ccc(NC(=O)N(C)Cc2ccco2)cn1", "Inhibition": 5.455}
{"compound": "COc1c(C)cc(C(C(=O)O)N(C)Cc2ccn[nH]2)cc1C", "stereo": "stereo not drawn", "Inhibition": 8.906}
{"compound": "CC(C)c1nccn1-c1cccc(C2CCCN(S(=O)(=O)N(C)C)C2)n1", "stereo": "stereo not drawn", "Inhibition": 4}
{"compound": "CCc1nccn1C1CCCN(C(=O)c2cnc3onc(C)c3c2)C1", "stereo": "stereo not drawn", "Inhibition": 7.216}
{"compound": "Cc1ccc(Cl)c2c1C1(NC(=O)c3cccnc3N1)C(=O)N2", "stereo": "stereo not drawn", "Inhibition": 6.923}
{"compound": "Cn1cc(C2COC3(CCN(C(=O)Cc4ccccc4)CC3)C2)cn1", "stereo": "stereo not drawn", "Inhibition": 12.32}
{"compound": "CC(C)NC(=O)C1CN(C(=O)Nc2cccc(F)c2)CC12CCOCC2", "stereo": "stereo not drawn", "Inhibition": -2.667}

2 of the entries, repeated:

{"compound": "CCc1nccn1C1CCCN(C(=O)c2cnc3onc(C)c3c2)C1", "stereo": "stereo not drawn", "Inhibition": 7.216}
{"compound": "COc1c(CNCc2cccnc2N2CCCCC2)c(C)nn1C", "Inhibition": 15.95}